Assay results from patent publication US20240368253A1.
Results are given in words; binding and its absence hold for the method and conditions named. Some entries that bind do so weakly or less than the wild type.

Chains of the proteins cited; added tags and fusions are not shown. Lines headed by an entry give the natural chain unless they say otherwise; changes in a name come on top.
UniProt P08648: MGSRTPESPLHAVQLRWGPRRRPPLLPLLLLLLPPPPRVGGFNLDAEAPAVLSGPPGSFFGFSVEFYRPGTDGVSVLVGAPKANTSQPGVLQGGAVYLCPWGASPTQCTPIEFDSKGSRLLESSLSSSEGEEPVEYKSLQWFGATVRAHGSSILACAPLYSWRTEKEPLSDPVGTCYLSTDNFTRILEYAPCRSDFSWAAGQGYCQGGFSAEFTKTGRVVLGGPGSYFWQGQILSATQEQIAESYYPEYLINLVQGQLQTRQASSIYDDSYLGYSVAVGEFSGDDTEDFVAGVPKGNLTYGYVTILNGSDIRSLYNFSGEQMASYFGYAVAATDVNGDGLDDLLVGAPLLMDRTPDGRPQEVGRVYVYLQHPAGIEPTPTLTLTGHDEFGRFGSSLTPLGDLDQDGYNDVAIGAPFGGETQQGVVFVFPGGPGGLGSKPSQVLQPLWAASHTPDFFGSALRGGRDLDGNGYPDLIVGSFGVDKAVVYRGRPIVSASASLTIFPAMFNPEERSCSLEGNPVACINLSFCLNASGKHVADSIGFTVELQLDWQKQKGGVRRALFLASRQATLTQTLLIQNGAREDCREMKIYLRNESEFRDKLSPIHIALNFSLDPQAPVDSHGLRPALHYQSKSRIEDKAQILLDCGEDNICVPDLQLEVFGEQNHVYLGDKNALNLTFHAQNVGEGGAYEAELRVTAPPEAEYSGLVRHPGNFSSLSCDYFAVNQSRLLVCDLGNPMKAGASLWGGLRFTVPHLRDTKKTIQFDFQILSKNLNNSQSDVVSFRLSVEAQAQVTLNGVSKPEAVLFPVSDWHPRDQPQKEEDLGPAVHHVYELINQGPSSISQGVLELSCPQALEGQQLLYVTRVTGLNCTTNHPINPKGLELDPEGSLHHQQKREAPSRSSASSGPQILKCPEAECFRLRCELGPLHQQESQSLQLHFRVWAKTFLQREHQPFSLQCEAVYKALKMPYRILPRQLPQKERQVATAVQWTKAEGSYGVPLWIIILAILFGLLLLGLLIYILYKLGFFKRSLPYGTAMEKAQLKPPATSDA
UniProt P04004: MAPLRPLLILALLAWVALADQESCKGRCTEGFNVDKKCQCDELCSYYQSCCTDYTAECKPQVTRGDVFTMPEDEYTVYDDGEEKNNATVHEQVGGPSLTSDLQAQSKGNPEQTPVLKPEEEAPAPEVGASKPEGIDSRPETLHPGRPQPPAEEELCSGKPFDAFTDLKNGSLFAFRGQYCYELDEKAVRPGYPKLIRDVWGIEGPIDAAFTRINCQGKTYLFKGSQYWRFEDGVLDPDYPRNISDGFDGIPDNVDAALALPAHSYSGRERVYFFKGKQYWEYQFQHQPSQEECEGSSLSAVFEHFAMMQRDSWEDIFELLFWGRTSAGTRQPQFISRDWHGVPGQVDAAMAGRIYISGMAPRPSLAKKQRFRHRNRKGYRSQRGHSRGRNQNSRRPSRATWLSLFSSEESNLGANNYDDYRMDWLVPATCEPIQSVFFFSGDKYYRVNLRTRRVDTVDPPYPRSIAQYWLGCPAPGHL

How the values were obtained:
[1] = target: alpha5Beta5 (α5β1) integrin heterodimer (UniProt P08648); assay: ELISA, ED50 normalized to fibronectin
[2] = target: alpha5Beta5 (α5β1) integrin heterodimer (UniProt P08648); assay: ELISA
[3] = target: alpha5Beta5 (α5β1) integrin heterodimer (UniProt P08648); assay: binding assay, method not given
[4] = target: alpha5Beta5 (α5β1) integrin heterodimer (UniProt P08648); assay: ELISA (restated)

binding [1]	binding [2]	binding [3]	binding [4]	Substance
binds	binds	–	–	Human Vitronectin Fragment 62-292 C-His (from UniProt P04004 62-292) (ligand)
binds	binds	binds	binds	VTN62-292 T63G, V67N, F68P (from UniProt P04004 62-292) (ligand)
binds	binds	–	binds	VTN62-292 T63G, V67S, F68P (from UniProt P04004 62-292) (ligand)
binds	binds	–	–	VTN-N variant (VTN-CTS), VTN62-478 (from UniProt P04004 62-478) (ligand)
